From patent US20040053822A1 come the findings set out here.

Common to all, as to test: inhibition of 125I probe peptide binding to purified HLA
Test [1] concerns the target HLA-DRB1*0301 (human).
The target of test [2] is HLA-DRB1*0101 (human).
Test [3] addresses HLA-DRB1*0401 (human).
Test [4] has as its target HLA-DRB1*0701 (human).

Results are given in words; binding and its absence hold for the method and conditions named.

B1: … (peptide)
peptide: LAIIAREGDCAPEEK
For B1, the binding result in test [1] was “no binding (tested: ratio < 0.0025)”.

B2: … (peptide)
peptide: CLGLSYDGLLGDNQI
In the case of B2, in test [1], the binding entry was “no binding (tested: ratio < 0.0025)”.

B3: … (peptide)
peptide: DGLLGDNQVMPKTGL
For B3, the binding entry in test [2] is “no binding (tested: ratio < 0.0005)”; in test [3] it was “no binding (tested: ratio < 0.0032)”; in test [4] it was “no binding (tested: ratio < 0.0011)”.

B4: … (peptide)
peptide: DGLLGDNQIMPKAGL
Take B4: the results for the binding entry in test [2], in test [3] and in test [4] were “no binding (tested: ratio < 0.0003)”, “no binding (tested: ratio < 0.0032)” and “no binding (tested: ratio < 0.0011)”, respectively.

B5: … (peptide)
peptide: LGEVPAADSPSPPHS
B5: the binding result in test [2] is reported as “no binding (tested: ratio < 0.0005)”; in test [3], “no binding (tested: ratio < 0.0032)”; in test [4] it was “no binding (tested: ratio < 0.0011)”.
